## Library screen at single concentrations

By UniProt entry, the sequences of proteins in these tests, tags left out. Residues count along the entry.
UniProt Q4DA54, 1-478: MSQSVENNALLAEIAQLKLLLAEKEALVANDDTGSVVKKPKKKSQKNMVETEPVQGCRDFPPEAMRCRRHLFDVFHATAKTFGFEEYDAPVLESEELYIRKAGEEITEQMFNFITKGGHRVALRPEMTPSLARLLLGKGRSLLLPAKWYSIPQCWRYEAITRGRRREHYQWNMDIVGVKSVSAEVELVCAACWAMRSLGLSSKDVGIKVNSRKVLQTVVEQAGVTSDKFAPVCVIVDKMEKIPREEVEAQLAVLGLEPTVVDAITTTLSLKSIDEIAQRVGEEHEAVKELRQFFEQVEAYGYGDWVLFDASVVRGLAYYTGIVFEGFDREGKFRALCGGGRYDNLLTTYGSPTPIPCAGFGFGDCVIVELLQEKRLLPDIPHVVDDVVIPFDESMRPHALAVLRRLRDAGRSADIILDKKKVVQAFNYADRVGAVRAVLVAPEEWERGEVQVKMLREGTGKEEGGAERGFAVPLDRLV
UniProt P9WNZ1, whole entry: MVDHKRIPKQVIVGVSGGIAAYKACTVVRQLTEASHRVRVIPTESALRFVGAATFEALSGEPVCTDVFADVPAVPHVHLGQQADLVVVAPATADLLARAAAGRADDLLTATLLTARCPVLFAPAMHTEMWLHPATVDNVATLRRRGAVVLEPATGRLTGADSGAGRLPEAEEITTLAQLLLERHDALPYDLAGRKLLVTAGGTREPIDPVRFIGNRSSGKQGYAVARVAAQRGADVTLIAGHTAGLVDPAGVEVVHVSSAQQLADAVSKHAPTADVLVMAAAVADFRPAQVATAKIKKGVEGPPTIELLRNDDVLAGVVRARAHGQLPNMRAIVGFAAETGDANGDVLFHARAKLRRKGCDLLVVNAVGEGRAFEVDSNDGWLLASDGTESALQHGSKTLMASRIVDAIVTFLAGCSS
UniProt A4I591, 1-473: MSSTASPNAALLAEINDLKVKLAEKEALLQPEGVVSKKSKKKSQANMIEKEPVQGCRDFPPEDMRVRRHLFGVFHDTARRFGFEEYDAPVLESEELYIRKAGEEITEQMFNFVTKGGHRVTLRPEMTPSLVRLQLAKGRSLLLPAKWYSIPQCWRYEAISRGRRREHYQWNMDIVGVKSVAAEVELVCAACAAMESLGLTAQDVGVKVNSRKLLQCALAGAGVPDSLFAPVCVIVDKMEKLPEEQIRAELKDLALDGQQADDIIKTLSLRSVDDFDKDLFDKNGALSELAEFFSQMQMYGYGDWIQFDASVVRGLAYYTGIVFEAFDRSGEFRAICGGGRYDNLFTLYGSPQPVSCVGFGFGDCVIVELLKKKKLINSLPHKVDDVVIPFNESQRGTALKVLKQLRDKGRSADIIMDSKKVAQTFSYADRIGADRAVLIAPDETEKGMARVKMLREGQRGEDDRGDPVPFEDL

TcHisRS: 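Histidine-tRNA ligase, Trypanosoma cruzi CL Brener (UniProt Q4DA54). Enzyme assay of histidyl-tRNA synthetase; the read-out is not stated. Tested at 30 µM. Higher reads as stronger inhibition (inferred: compounds with an IC50 in retests scored well above the rest). Size under these conditions: about 69,000 compounds, about 31 of them at 50% or above in at least one test.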
CoaBC: 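Coenzyme A biosynthesis protein CoaBC, Mycobacterium tuberculosis (UniProt P9WNZ1). Enzyme assay of CoaBC with a phosphate dye (Biomol Green) read at 650 nm. Compounds at 30 µM. Higher reads as stronger inhibition, judged from the few compounds that gave an IC50. Most strong results did not repeat in a second test. Size under these conditions: about 67,000 compounds, about 40 of them at 50% or above in at least one test.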
LiHisRS: 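Histidine-tRNA ligase, Leishmania infantum (UniProt A4I591). Enzyme assay of histidyl-tRNA synthetase; the read-out is not stated. Tested at 30 µM. Higher reads as stronger inhibition (inferred: compounds with an IC50 in retests scored well above the rest). The assay is labelled LdHisRS but filed under L. infantum. Size under these conditions: about 69,000 compounds, about 410 of them at 50% or above in at least one test.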

Each number is a percent effect as filed.
The record does not define 0% and 100%; most values in the screen are far below 50% and negative numbers occur (in some assays of this library far below -100).
Compounds were drawn at random from those tested, without regard to their results.
A dash means the value is not listed here; it may have been measured.

Result for CC(O)(CNC(=O)c1cccnc1-n1cccn1)c1ccco1 (stereo not shown) was TcHisRS: 8.911%; CoaBC: -7.767%; LiHisRS: 14.29%.
Result for Cc1cc2nc(C(C)C)cc(N3CCN(S(N)(=O)=O)CC3)n2n1 was TcHisRS: 4.95%; CoaBC: -2.542%; LiHisRS: 25%.
Result for Cn1cncc1-c1nnc([C@H]2CCN(CC(C)(C)C)C2)o1 was TcHisRS: 3.483%; LiHisRS: 0%.
Result for CNC(=O)c1nc(COc2ccc3c(c2)OCO3)no1 was TcHisRS: -21.78%; CoaBC: 1.09%; LiHisRS: 7.609%.
Result for Cc1cc(CN2CCN(Cc3cc(C#N)ccc3F)CC2)no1 was TcHisRS: 1.031%; CoaBC: 7.159%; LiHisRS: 1.149%.
Result for COCCn1ccc(NCc2sccc2C)n1 was TcHisRS: 10.34%; CoaBC: 0.5894%; LiHisRS: 14.91%.
Result for CCC(O)CN(Cc1cccc(C(=O)N(C)C)c1)c1ccccc1 (stereo not shown) was TcHisRS: 4.813%; CoaBC: 2.174%; LiHisRS: 1.571%.
Result for CO[C@H]1COCCN(C(=O)c2ccc(C#N)cc2)C1 was TcHisRS: -2.488%; CoaBC: 16.7%; LiHisRS: 45.95%.
Result for COc1cc(C)sc1C(=O)N1CC(c2cccnc2)C1 was TcHisRS: 5%; CoaBC: -3.625%; LiHisRS: 13.46%.
Result for Cc1cc(C)n(CC2CCCN2Cc2nc(N)c3ccccc3n2)n1 (stereo not shown) was TcHisRS: 5.634%; CoaBC: 2.926%; LiHisRS: 20%.
Result for O=C(Cc1ccccn1)N1CCC2(CC1)CN(CC1CC1)C(=O)CO2 was TcHisRS: 5.747%; CoaBC: 4.713%; LiHisRS: 20%.
Result for O=C(CN1CCCC1COc1ccccc1)NCc1ccccn1 (stereo not shown) was TcHisRS: 4%; CoaBC: 1.186%; LiHisRS: 0%.
Result for CCc1cc(NC(CCO)c2ccc(OC)cc2)n2nccc2n1 (stereo not shown) was TcHisRS: 3.03%; CoaBC: 1.217%; LiHisRS: 0%.
Result for CC(CC(=O)NCCS(N)(=O)=O)C1CCCCC1 (stereo not shown) was TcHisRS: 7%; CoaBC: -0.2421%; LiHisRS: 23.91%.
Result for COc1ccc(NC(=O)CCC2CCCN(S(=O)(=O)C3CC3)C2)cc1Cl (stereo not shown) was TcHisRS: 3.247%; CoaBC: 11.25%; LiHisRS: 14.52%.
Result for COC(=O)c1cc(OCC2CCC2)cc(C(=O)NCC(C)(C)O)c1 was TcHisRS: -1.22%; CoaBC: 1.139%; LiHisRS: 18.07%.
Result for CC(=O)N(C)C1CCCc2nc(C)sc21 (stereo not shown) was TcHisRS: 6.349%; CoaBC: 1.446%; LiHisRS: 13.7%.
Result for CC(C)COC1CCN(C(=O)c2cc3ccccc3c(=O)[nH]2)CC1 was TcHisRS: 4.167%; CoaBC: -2.737%; LiHisRS: 11.32%.
Result for Cn1cnc2c1CCN(Cc1csc(-c3ccccc3F)n1)C2 was TcHisRS: 10.26%; CoaBC: 7.632%; LiHisRS: 19.44%.
Result for N#Cc1cccn(CCOc2ccc(Cl)cc2)c1=O was TcHisRS: -0.9852%; CoaBC: 8.974%; LiHisRS: 26.03%.
Result for O=C(Cc1ccccc1)NCc1ccc(-c2ccccc2C(=O)O)cn1 was TcHisRS: 0.2857%; CoaBC: -1.598%; LiHisRS: 5.369%.
Result for CCSc1cc(C(=O)NCCC(=O)N(C)C)ccn1 was TcHisRS: 5.521%; CoaBC: 3.201%; LiHisRS: 27.16%.
Result for CCS(=O)(=O)c1ccccc1N1CCC(NC(=O)C(C)C)CC1 was TcHisRS: 7.602%; CoaBC: 3.316%; LiHisRS: 14.55%.
Result for CCn1cnnc1CNC(=O)N(C)Cc1ccc(Cl)cc1Cl was TcHisRS: 0.4926%; CoaBC: -0.3165%; LiHisRS: -6.494%.
Result for c1cnn(CCNCc2cnc(N3CCOCC3)nc2)c1 was TcHisRS: -1.22%; CoaBC: 0.8861%; LiHisRS: 27.71%.
Result for C[C@H]1C[C@H]2CN(C(=O)c3cccc4c3OCCO4)CC[C@H]2O1 was TcHisRS: -1.227%; LiHisRS: 1.709%.

The last 3 entries again:

| Compound | TcHisRS | CoaBC | LiHisRS |
|---|---|---|---|
| `CCn1cnnc1CNC(=O)N(C)Cc1ccc(Cl)cc1Cl` | 0.4926% | -0.3165% | -6.494% |
| `c1cnn(CCNCc2cnc(N3CCOCC3)nc2)c1` | -1.22% | 0.8861% | 27.71% |
| `C[C@H]1C[C@H]2CN(C(=O)c3cccc4c3OCCO4)CC[C@H]2O1` | -1.227% | - | 1.709% |

Measurements from “University of Dundee, Small-Polar-MMV Screening Library” (2021), ChEMBL document CHEMBL3988442.